The data set in a line: general procedure: Fmoc solid-phase peptide synthesis; polystyrene 1% DVB Fmoc-Rink amide resin, 0.56 mmoles/gram; DIC/HOBt and HBTU/HOBt/DIEA, double coupling. Particulars: whole synthesis, Michrom Ultrafast Microprotein Analyzer, C-8 Zorbax column, 214 nm, peak area, scale of the general procedure generally 0.25 grams of starting resin (0.1-5 grams).
“2-naphthylacetyl-k-l-f-r-(naph-a)-q-a-k (KLFRAQAK; 2-naphthylacetyl cap; D-residues; naphthylalanine; derived from human; SITE (1)..(8) XMP.666)”: the “crude HPLC purity” value amounted to 82.9%.

As to “4-biphenylcarbonyl-k-l-f-k-(biphenyl-a)-q-a-k”, the “crude HPLC purity” value is 98.9%.

As for “k-l-f-k-(naph-a)-q-a-k-(naph-a) (KLFKAQAKA; D-residues; naphthylalanine; derived from human; SITE (1)..(9) XMP.776)”, the “crude HPLC purity” value came to 96.4%.

For “k-a-f-k-(naph-a)-q-a-k-(naph-a)-k-G (KAFKAQAKAKG; D-residues; naphthylalanine; derived from human; SITE (1)..(11) XMP.764)”, the “crude HPLC purity” value was 90.0%.

As to “2-biphenylenecarbonyl-k-l-f-r-(naph-a)-q-a-k (KLFRAQAK; 2-biphenylenecarbonyl cap; D-residues; naphthylalanine; derived from human; SITE (1) XMP.699)”, the “crude HPLC purity” value came out at 75.5%.

Take “k-a-f-r-(naph-a)-q-a-k-(naph-a) (KAFRAQAKA; D-residues; naphthylalanine; derived from human; SITE (1)..(9) XMP.760)”: the “crude HPLC purity” value is given as 98.0%.

Turning to “4-biphenylcarbonyl-k-l-f-k-(naph-a)-q-a-k (KLFKAQAK; 4-biphenylcarbonyl cap; D-residues; naphthylalanine; derived from human; SITE (1)..(8) XMP.767)”, the “crude HPLC purity” value is reported as 96.0%.

In the case of “1-naphthylacetyl-k-l-f-r-(naph-a)-q-a-k (KLFRAQAK; 1-naphthylacetyl cap; D-residues; naphthylalanine; derived from human; SITE (1)..(8) XMP.671)”, the “crude HPLC purity” value is 91.0%.

On to “4-biphenylcarbonyl-k-l-f-r-(biphenyl-a)-q-a-k”, for which the “crude HPLC purity” value was determined as 97.2%.

For “4-biphenylcarbonyl-k-l-f-r-(naph-a)-q-a-k (KLFRAQAK; 4-biphenylcarbonyl cap; D-residues; naphthylalanine; derived from human; SITE (1)..(8) XMP.664)”, the “crude HPLC purity” value was 99.0%.

Turning to “k-(aminoisobutyric acid)-f-r-(naph-a)-q-a-k-(naph-a)”, the “crude HPLC purity” value was 79.7%.

These data come from US20060148714A1 (priority 1999, published 2006).
